Results taken from PubChem BioAssay AID504467 (National Center for Advancing Translational Sciences (NCATS), 2011).
In all, about 330,000 compounds went through this assay and about 7,700 (2.3%) were called active. The inconclusive results got no clear call from the source; some entries with a clear call stand among them for comparison. Calls follow the shape of the dose curve; as a rule, active = well fitted inhibition curve with a large enough effect; inconclusive = small, poorly fitted or top-dose-only effect, or effect the other way; inactive = flat fitted curve, though single readings scatter. Potencies of inconclusive entries are doubtful fits and often do not repeat.

Experiment: qHTS screen for small molecules that inhibit ELG1-dependent DNA repair in human embryonic kidney (HEK293T) cells expressing luciferase-tagged ELG1; also: nearly all actives have a fitted effect of over 55% in size
Conditions: HEK293T ELG1-luciferase reporter, luminescence, 16 h, DNA damage induced by 5-fluorouridine; activity change, negative = inhibition: at 46.1 µM (top of the series)
Procedure, shortened: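 In this reporter screen, reduction of luminescence relative to DMSO vehicle indicated activity. Compounds and 5-fluorouridine were added together to 2,000 cells per well, incubated for 16 hr at 37 °C, then developed with ONE-Glo.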
% is scaled to controls: 0 for no effect and ±100 for the full control effect; potency is read from the fitted curve at half-maximal effect.

Row | Compound | Potency | activity change, negative = inhibition
1 | Nc1cc(-c2ccc(Cl)cc2)nn1S(=O)(=O)c1cccc2nsnc12 | inconclusive: 29.1 µM [inhibitor, single point] | –
2 | CCCCN1C(=S)SC(C)(C)C1/[N+]([O-])=C/c1ccc(S(=O)(=O)NC)cc1 (stereo not given) | – | inactive: -15.4%
3 | COc1ccc(CNC(=O)C2CCN(c3cc(C(=O)Nc4cccc(OC)c4)ccn3)CC2)cc1 | inconclusive: 20.6 µM [inhibitor, single point] | –
4 | O=C(CNCCC1=CCCCC1)Nc1ccccc1N1CCCCC1 | – | inactive: 5.19%
5 | CC(C(=O)NCc1cccc(Cl)c1)N1C(=O)c2ccccc2C1=O (stereo not given) | – | inactive: 1.75%
6 | C=CCOc1ccc(/C=N/Nc2ccccn2)cc1OC | inconclusive: 9.2 µM [activator, partial curve] | –
7 | COc1ccc(CNC(=O)C(c2ccccc2F)N(C(=O)c2csnn2)C2CC2)cc1 (stereo not given) | inconclusive: 16.4 µM [inhibitor, partial curve, poor fit] | –
8 | CC(C)Cc1nc2ccccc2[nH]1 | – | inactive: -1.76%
9 | CCC(C)(C)NC(=O)C(c1ccccc1Cl)N(Cc1cccnc1)C(=O)CCC(=O)Nc1cc(C)on1 (stereo not given) | – | inactive: -12.6%
10 | Cc1ccc2c(COC(=O)C3CC(=O)N(c4ccc5c(c4)OCCO5)C3)cc(=O)oc2c1 (stereo not given) | inconclusive: 18.3 µM [activator, partial curve, poor fit] | –
11 | CCc1nc2ccccc2n(CCOCCn2c(=O)c(CC)nc3ccccc32)c1=O | active: 23.1 µM | –
12 | Oc1ccc(N=Cc2ccc(-c3cccs3)s2)cc1 | inconclusive: 13 µM [inhibitor, partial curve] | –
13 | CCN1C(=O)c2cccc3c(S(=O)(=O)N(C(C)=O)c4ccc(OC(C)=O)cc4)ccc1c23 | inconclusive: 23.1 µM [inhibitor, partial curve, poor fit] | –
14 | O=Nc1c(O)[nH]c2c(F)cccc12 | – | inactive: -1.7%
15 | CCOC(=O)c1sc(NC(=O)CSc2n[nH]c(-c3ccncc3)n2)c(C#N)c1C | active: 18.4 µM | –
16 | CC(C)CN=C(NS(=O)(=O)c1ccccc1)C(Cl)(Cl)Cl | inconclusive: 10.3 µM [inhibitor, partial curve, poor fit] | –
17 | CC1(C)C(=O)Nc2ccccc2N1C(=O)COC(=O)c1cc([N+](=O)[O-])ccc1N | inconclusive: 23.1 µM [inhibitor, single point] | –
18 | COCCSc1ccccc1C(=O)NCc1ccc(S(N)(=O)=O)cc1 | inconclusive: 20.6 µM [inhibitor, single point] | –
19 | COc1ccc(C(=O)OCc2cc(=O)n3ccsc3n2)cc1F | inconclusive: 18.3 µM [activator, partial curve] | –
20 | O=C(CCc1nc2ccccc2c(=O)[nH]1)Nc1nnc(SCc2ccc(F)cc2)s1 | – | inactive: 0.0928%
21 | Cc1nc(C2COc3ccccc3O2)sc1C(=O)O (stereo not given) | inconclusive: 23.1 µM [activator, single point] | –
22 | O=[N+]([O-])c1cc(S(=O)(=O)N2CCCCCC2)ccc1F | inconclusive: 25.9 µM [inhibitor, single point] | –
23 | Cc1ccc(NC(=S)Nc2cccc3cnccc23)c(C)c1 | active: 20.6 µM | –

Row | Compound | Potency | activity change, negative = inhibition
24 | COc1ccccc1/C=C/C(=O)c1ccc(NC(C)=O)cc1 | inconclusive: 29.1 µM [inhibitor, single point] | –
25 | Cc1cccc(C)c1OCc1cc(C(=O)N2CCCC2c2nonc2C)no1 (stereo not given) | inconclusive: 29.1 µM [inhibitor, single point] | –
26 | COc1ccccc1NS(=O)(=O)c1cccc2cccnc12 | – | inactive: 21.2%
27 | COc1ccc(C(=O)c2sc(Nc3ccccc3F)nc2N)cc1 | inconclusive: 4.11 µM [activator, full curve] | –
28 | COc1cccc(CNc2ccc3c(c2)CCC3)c1 | inconclusive: 18.4 µM [activator, partial curve] | –
29 | Cc1cccc(Nc2nc(N)c([N+](=O)[O-])c(N3CCOCC3)n2)c1 | inconclusive: 29.1 µM [inhibitor, single point] | –
30 | COc1cc(CNc2nc3ccccc3s2)cc(OC)c1OC | – | inactive: -12.4%
31 | COc1ccc2oc(=O)c(C(=O)NCc3cccnc3)cc2c1 | inconclusive: 1.16 µM [inhibitor, full curve, poor fit] | –
32 | C=CCNC(=O)NC(=O)COC(=O)CNS(=O)(=O)c1ccc(F)c(F)c1F | – | inactive: 2.96%
33 | O=C(NCC1(c2ccccc2)CCCC1)c1ccccc1 | – | inactive: -0.119%
34 | COc1ccc(CCNC(=O)c2oc3ccc(OC)cc3c2C)cc1 | – | inactive: 4.44%
35 | COc1ccc(C2=Nn3c(nnc3-c3ccccc3Cl)SC2)cc1OC1CCCC1 | inconclusive: 18.3 µM [inhibitor, single point] | –
36 | CCC1CN(C(=O)Nc2ccc(C)cc2)c2cc(C)ccc2O1 (stereo not given) | – | inactive: -7.84%
37 | CCc1ccc(NC(=O)CSc2nc(=O)n3cc(C)ccc3n2)cc1 | inconclusive: 25.9 µM [activator, single point] | –
38 | COC(=O)C1=C(C(=O)OC)C(c2ccccc2O)c2sc(=O)[nH]c2S1 (stereo not given) | inconclusive: 13 µM [activator, partial curve, poor fit] | –
39 | O=C(Nc1ccc(Cl)c(Cl)c1)c1ccc(Cl)c(Cl)c1 | inconclusive: 6.51 µM [activator, partial curve] | –
40 | COc1nc(Nc2cccc(C(F)(F)F)c2)nc(OC)n1 | inconclusive: 16.4 µM [activator, single point] | –
41 | CCOC(=O)c1c(C)n(C)c2ccc(OCC(O)CN3C(=O)c4ccccc4S3(=O)=O)cc12 (stereo not given) | inconclusive: 6.51 µM [inhibitor, single point] | –
42 | Cc1ccc2nc(COC(=O)c3ccc(Cl)nc3)cc(=O)n2c1 | – | inactive: 6.96%
43 | COc1ccccc1NC(=S)N1CCN(C/C=C/c2ccccc2)CC1 | inconclusive: 25.9 µM [inhibitor, partial curve, poor fit] | –
44 | COc1ccc(-c2cc(C(F)(F)F)nc(SCC(=O)Nc3sc4c(c3C#N)CCC4)n2)cc1 | inconclusive: 4.11 µM [inhibitor, partial curve, poor fit] | –
45 | CCCN(CC(=O)Nc1ccc(C)cc1Br)CC(=O)Nc1ccc(F)c(F)c1F | inconclusive: 20.6 µM [inhibitor, single point] | –

14 successive entries out of the list so far, quoted:
Row | Compound | Potency | activity change, negative = inhibition
9 | CCC(C)(C)NC(=O)C(c1ccccc1Cl)N(Cc1cccnc1)C(=O)CCC(=O)Nc1cc(C)on1 (stereo not given) | – | inactive: -12.6%
10 | Cc1ccc2c(COC(=O)C3CC(=O)N(c4ccc5c(c4)OCCO5)C3)cc(=O)oc2c1 (stereo not given) | inconclusive: 18.3 µM [activator, partial curve, poor fit] | –
11 | CCc1nc2ccccc2n(CCOCCn2c(=O)c(CC)nc3ccccc32)c1=O | active: 23.1 µM | –
12 | Oc1ccc(N=Cc2ccc(-c3cccs3)s2)cc1 | inconclusive: 13 µM [inhibitor, partial curve] | –
13 | CCN1C(=O)c2cccc3c(S(=O)(=O)N(C(C)=O)c4ccc(OC(C)=O)cc4)ccc1c23 | inconclusive: 23.1 µM [inhibitor, partial curve, poor fit] | –
14 | O=Nc1c(O)[nH]c2c(F)cccc12 | – | inactive: -1.7%
15 | CCOC(=O)c1sc(NC(=O)CSc2n[nH]c(-c3ccncc3)n2)c(C#N)c1C | active: 18.4 µM | –
16 | CC(C)CN=C(NS(=O)(=O)c1ccccc1)C(Cl)(Cl)Cl | inconclusive: 10.3 µM [inhibitor, partial curve, poor fit] | –
17 | CC1(C)C(=O)Nc2ccccc2N1C(=O)COC(=O)c1cc([N+](=O)[O-])ccc1N | inconclusive: 23.1 µM [inhibitor, single point] | –
18 | COCCSc1ccccc1C(=O)NCc1ccc(S(N)(=O)=O)cc1 | inconclusive: 20.6 µM [inhibitor, single point] | –
19 | COc1ccc(C(=O)OCc2cc(=O)n3ccsc3n2)cc1F | inconclusive: 18.3 µM [activator, partial curve] | –
20 | O=C(CCc1nc2ccccc2c(=O)[nH]1)Nc1nnc(SCc2ccc(F)cc2)s1 | – | inactive: 0.0928%
21 | Cc1nc(C2COc3ccccc3O2)sc1C(=O)O (stereo not given) | inconclusive: 23.1 µM [activator, single point] | –
22 | O=[N+]([O-])c1cc(S(=O)(=O)N2CCCCCC2)ccc1F | inconclusive: 25.9 µM [inhibitor, single point] | –
